Assay results: article doi:10.1101/284836

By UniProt entry, the sequences of proteins in these tests, tags left out.
UniProt P0A9K9: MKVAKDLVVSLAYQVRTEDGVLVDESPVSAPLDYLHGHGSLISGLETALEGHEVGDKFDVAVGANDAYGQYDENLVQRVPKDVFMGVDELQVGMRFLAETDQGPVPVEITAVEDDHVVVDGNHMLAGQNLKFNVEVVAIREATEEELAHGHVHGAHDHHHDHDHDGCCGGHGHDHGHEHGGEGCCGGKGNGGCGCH

Molecular target: T1, EcSxyHIS (histidine-tagged E. coli Sxy) (E. coli) (UniProt P75869)
T1 sequence: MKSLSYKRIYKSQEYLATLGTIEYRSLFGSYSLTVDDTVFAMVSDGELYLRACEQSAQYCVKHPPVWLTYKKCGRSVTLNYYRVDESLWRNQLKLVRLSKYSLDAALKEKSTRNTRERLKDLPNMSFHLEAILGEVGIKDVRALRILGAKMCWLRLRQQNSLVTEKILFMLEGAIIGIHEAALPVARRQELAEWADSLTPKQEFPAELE
Experiment: affinity purification with mass spectrometry

binding: no binding
Substance: SlyD (from UniProt P0A9K9 1-196)

No constants are given. Whether binding was seen depends on the method and setting. In cells and extracts the contact can be indirect. These calls come from enrichment with a bait or labelling near it, and not all partners need be listed. A no says only that the protein was not detected with the bait. Where a sequence is shown, tags or fusion partners need not be part of it.
